# Assay results: PubChem BioAssay (EPA / NIEHS)
# By UniProt entry, the sequences of proteins in these tests, tags left out. Where a name states a change or a piece, a line headed by the entry shows the natural chain unless it says otherwise.
# UniProt P10275: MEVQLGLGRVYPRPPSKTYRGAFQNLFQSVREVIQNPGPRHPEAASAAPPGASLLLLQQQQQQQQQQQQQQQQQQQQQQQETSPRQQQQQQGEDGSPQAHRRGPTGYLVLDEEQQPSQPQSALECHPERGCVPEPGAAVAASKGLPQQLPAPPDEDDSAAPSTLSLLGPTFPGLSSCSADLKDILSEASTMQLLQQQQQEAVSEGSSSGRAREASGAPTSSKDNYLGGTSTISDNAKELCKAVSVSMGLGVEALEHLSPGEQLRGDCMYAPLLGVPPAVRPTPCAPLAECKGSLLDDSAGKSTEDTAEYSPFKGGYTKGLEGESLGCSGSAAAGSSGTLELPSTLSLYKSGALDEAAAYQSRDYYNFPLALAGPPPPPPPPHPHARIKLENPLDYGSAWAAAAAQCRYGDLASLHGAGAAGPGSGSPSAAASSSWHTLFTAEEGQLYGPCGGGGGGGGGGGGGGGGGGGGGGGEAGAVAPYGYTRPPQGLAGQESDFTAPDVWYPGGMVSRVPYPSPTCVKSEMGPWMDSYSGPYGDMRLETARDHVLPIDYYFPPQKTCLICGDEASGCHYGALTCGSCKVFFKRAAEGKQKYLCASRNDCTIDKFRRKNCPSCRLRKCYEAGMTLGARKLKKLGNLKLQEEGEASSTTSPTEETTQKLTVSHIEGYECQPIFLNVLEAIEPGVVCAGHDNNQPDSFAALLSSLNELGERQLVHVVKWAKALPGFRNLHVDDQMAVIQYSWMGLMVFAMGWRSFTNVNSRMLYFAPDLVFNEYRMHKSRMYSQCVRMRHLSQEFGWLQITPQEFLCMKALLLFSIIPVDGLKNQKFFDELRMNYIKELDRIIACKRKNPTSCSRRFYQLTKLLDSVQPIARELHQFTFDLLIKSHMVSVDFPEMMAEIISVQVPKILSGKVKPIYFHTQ
# UniProt P04150: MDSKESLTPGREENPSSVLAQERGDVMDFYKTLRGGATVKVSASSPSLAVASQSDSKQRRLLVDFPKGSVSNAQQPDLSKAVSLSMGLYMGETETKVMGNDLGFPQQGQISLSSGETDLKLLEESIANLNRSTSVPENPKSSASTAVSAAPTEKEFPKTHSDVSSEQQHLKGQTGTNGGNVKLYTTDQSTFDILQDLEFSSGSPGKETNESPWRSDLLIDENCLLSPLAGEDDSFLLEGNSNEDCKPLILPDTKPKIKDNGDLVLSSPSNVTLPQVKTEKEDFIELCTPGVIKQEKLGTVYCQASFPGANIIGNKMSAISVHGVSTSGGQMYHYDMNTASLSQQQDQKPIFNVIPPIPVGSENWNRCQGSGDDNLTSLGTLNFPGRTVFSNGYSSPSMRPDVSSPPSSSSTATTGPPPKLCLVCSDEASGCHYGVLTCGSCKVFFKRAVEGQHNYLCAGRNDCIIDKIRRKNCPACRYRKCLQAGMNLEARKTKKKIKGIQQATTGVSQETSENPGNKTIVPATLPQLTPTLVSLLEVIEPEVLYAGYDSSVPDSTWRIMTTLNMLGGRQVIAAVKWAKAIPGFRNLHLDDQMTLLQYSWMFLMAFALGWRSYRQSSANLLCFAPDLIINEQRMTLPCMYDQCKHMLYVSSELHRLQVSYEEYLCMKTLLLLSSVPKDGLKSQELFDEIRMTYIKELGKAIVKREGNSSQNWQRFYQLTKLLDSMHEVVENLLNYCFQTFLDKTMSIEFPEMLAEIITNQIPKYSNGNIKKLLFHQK
# UniProt P19793: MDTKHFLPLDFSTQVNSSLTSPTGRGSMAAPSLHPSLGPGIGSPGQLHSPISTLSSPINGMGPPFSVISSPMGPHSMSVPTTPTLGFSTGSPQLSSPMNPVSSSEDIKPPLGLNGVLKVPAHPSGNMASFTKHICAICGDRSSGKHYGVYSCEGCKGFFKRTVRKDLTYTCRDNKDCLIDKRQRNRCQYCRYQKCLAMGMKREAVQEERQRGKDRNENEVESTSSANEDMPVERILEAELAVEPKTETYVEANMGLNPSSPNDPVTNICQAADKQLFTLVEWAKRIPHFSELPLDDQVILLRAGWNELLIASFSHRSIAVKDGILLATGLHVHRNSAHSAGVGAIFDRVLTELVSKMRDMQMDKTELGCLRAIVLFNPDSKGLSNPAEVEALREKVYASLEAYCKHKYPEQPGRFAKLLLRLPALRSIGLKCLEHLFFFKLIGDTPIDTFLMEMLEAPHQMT
# UniProt P04637, whole entry, looked up: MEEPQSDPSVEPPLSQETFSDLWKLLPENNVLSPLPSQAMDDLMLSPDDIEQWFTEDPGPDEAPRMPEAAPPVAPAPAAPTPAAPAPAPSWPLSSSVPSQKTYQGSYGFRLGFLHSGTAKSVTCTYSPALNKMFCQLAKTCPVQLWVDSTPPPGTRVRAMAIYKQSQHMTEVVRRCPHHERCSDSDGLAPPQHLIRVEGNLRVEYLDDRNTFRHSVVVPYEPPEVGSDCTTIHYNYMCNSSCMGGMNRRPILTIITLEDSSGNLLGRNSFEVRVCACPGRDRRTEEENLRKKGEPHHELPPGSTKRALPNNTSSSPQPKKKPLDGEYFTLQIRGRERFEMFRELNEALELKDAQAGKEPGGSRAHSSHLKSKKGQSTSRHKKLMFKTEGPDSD
# UniProt O75469: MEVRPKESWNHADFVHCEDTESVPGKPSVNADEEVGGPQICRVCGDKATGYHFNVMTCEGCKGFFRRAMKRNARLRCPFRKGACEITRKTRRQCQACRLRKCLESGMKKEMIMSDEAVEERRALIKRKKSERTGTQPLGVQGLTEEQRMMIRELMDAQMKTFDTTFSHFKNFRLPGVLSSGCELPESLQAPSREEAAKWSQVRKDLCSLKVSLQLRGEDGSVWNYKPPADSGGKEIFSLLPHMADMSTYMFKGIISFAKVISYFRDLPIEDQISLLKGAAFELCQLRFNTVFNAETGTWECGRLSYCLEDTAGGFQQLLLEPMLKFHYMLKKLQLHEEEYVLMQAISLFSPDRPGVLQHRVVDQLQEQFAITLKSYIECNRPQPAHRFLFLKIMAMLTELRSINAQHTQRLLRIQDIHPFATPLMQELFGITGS
# UniProt P11473: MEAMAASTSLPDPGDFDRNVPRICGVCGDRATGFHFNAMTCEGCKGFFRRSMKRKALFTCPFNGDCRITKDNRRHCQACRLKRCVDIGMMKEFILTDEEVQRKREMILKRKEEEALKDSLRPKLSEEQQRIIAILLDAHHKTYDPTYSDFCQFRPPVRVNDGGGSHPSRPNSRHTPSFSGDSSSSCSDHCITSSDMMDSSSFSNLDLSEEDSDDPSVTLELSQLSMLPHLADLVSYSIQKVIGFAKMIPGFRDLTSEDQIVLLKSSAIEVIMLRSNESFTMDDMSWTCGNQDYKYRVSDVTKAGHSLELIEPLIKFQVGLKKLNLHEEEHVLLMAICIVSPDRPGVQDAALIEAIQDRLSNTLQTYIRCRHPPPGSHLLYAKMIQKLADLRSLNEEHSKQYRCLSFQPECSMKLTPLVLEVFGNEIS
# UniProt Q03181: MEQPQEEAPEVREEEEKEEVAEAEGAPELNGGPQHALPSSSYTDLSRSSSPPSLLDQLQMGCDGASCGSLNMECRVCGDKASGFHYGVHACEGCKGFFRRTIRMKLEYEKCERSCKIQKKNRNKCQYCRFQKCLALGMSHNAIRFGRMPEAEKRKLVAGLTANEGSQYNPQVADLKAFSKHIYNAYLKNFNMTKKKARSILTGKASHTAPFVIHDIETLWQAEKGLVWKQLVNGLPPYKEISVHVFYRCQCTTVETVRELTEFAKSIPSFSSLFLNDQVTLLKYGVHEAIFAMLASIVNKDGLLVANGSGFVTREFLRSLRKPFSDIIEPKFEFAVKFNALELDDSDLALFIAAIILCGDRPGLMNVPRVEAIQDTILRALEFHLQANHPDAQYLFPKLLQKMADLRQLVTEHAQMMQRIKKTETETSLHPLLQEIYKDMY
# UniProt Q96RI1: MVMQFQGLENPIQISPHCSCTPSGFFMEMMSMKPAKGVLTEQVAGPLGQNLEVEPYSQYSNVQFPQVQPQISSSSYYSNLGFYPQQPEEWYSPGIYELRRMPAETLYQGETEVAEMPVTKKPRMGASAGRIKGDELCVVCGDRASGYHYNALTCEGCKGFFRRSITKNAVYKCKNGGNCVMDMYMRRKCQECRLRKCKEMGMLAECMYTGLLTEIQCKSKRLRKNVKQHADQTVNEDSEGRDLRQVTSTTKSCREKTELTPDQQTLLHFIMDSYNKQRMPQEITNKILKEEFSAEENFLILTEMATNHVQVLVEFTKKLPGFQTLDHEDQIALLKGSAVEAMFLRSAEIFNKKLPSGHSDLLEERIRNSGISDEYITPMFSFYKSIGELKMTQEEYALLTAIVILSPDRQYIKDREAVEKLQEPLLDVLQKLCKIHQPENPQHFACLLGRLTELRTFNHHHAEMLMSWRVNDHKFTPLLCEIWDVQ
# The inconclusive results got no clear call from the source; some entries with a clear call stand among them for comparison. For part of these data: Potencies of inconclusive entries are doubtful fits and often do not repeat. Activity calls are given as the source filed them. The calls were made as follows: active = hit-call score of the fitted dose curve at least 0.9, where 1 is the maximum; inconclusive = response in the unintended direction; inactive = score below 0.9.
# Legend:
# [1] = molecular target: Androgen receptor (Homo sapiens) (UniProt P10275); assay: ATG_AR_TRANS: Attagene TRANS-FACTORIAL HepG2 Assay for human Androgen Receptor (AR) (AID 2282973); conditions: HepG2 Attagene TRANS-FACTORIAL AR reporter transcription
# In short: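 Readout is reporter transcript abundance, quantified by fluorescent RT-PCR products separated on capillary electrophoresis. Human HepG2 liver cells carried transiently transfected NR-Gal4 chimera plus GAL4-UAS reporter constructs and were dosed for 24 h; activity scored upward versus DMSO.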
# [2] = molecular target: Glucocorticoid receptor (Homo sapiens) (UniProt P04150); assay: ATG_GR_TRANS: Attagene TRANS-FACTORIAL HepG2 Assay for human Glucocorticoid Receptor (GR) (AID 2282978); conditions: HepG2 Attagene TRANS GR reporter, mRNA transcription;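 also: activators score as hits since higher reporter transcript over DMSO is fitted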
# In short: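 HepG2 cells transiently transfected with GAL4-UAS reporter units and exogenous GR-Gal4 chimera, dosed 24 h. Reporter mRNA by RT-PCR, FAM labeling, HpaI digest and capillary electrophoresis; gain-of-signal fit versus DMSO.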
# [3] = molecular target: Retinoic acid receptor RXR-alpha (Homo sapiens) (UniProt P19793); assay: ATG_RXRa_TRANS: Attagene TRANS-FACTORIAL HepG2 Assay for human Retinoid X Receptor alpha (RXRa) (AID 2283012)
# In short: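 HepG2 cells transiently transfected with multiplexed GAL4-UAS reporter units and chimeric NR-GAL4 fusions, dosed 24 h. Reporter mRNA measured by RT-PCR, FAM labelling, HpaI digestion and capillary electrophoresis; gain-of-signal fitted relative to DMSO baseline.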
# [4] = ATG_XTT_Cytotoxicity: Cytotoxicity Assessment in the Attagene TRANS-FACTORIAL HepG2 Assay (AID 2283584);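 as to AC50: cells exposed to compound for 24 h before reading; active means loss of viability signal versus DMSO baseline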
# In short: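 XTT readout of cell number in transfected HepG2 cells, 24 h post-dosing; DMSO serves as negative control and baseline, with activity taken as loss of viability signal.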
# [5] = molecular target: Cellular tumor antigen p53 (Homo sapiens) (UniProt P04637); assay: TOX21_p53_BLA_p2_ratio: Tox21 HCT-116 p53 Agonism Beta-lactamase Assay, Ratio, Phase 2 (AID 2283592)
# In short: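 In this cell-based reporter format, HCT116 cells were dosed with chemicals delivered from DMSO by 217-fold dilution and incubated 16 h at 37C. Emission at 460 and 530 nm after 2 h CCF4-AM loading provided the ratio, fitted upward versus DMSO.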
# [6] = molecular target: Cellular tumor antigen p53 (Homo sapiens) (UniProt P04637); assay: TOX21_p53_BLA_p3_ratio: Tox21 HCT-116 p53 Agonism Beta-lactamase Assay, Ratio, Phase 3 (AID 2283596)
# In short: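 HCT116 p53-bla cells (4000/well) given compound in DMSO (217-fold dilution) after 5 h, incubated 16 h at 37C. CCF4-AM substrate 2 h at room temperature; 460/530 nm emission ratio, gain fitted against DMSO.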
# [7] = ATG_M_32_TRANS: Attagene TRANS-FACTORIAL HepG2 Assay for M32 Transcription Factor (Internal Marker) (AID 2282984); conditions: HepG2 Attagene TRANS M32 internal marker reporter;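 as to outcome: transcript level of a background control reporter unit measured by RT-PCR and capillary electrophoresis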
# In short: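 Capillary electrophoresis of 6-FAM-labelled reporter fragments gives the signal; data fitted for gain over DMSO negative control. Source: HepG2 cells bearing transient multiple reporter transcription units, 24 h exposure.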
# [8] = molecular target: Nuclear receptor subfamily 1 group I member 2 (Homo sapiens) (UniProt O75469); assay: ATG_PXR_TRANS: Attagene TRANS-FACTORIAL HepG2 Assay for human Pregnane X Receptor (PXR) (AID 2283008)
# In short: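 HepG2 cells transiently transfected with multiple reporter units, here a PXR-GAL4 chimera driving a GAL4-UAS reporter; 24 h compound exposure. Reporter mRNA measured by RT-PCR, FAM labelling and capillary electrophoresis; gain of signal fitted against DMSO baseline.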
# [9] = molecular target: human Vitamin D Receptor (VDR), VDR (gene 7421) (UniProt P11473); assay: ATG_VDR_TRANS: Attagene TRANS-FACTORIAL HepG2 Assay for human Vitamin D Receptor (VDR) (AID 2283022)
# In short: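 RT-PCR/capillary electrophoresis read-out of reporter mRNA induction in transiently transfected HepG2; 24 h dosing; chimeric NR-Gal4 (TRANS format); gain-of-signal fit against DMSO baseline.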
# [10] = CCTE_Harrill_HTTr_CellCount_MCF7: CCTE's Cell Proliferation Assessment for the High-Throughput Transcriptomics (HTTr) Platform, Harrill Lab (AID 2284012);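 also: cells exposed to compound for six hours; intended direction is loss of nuclei count meaning fewer cells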
# In short: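 MCF-7 cells were exposed for 6 h to an eight-point dilution series; Hoechst-labeled nuclei were counted by high content imaging. Curves were fitted bidirectionally against DMSO as negative control and baseline, with signal loss indicating reduced cell count.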
# [11] = molecular target: human Peroxisome Proliferator-activated Receptor delta (PPARd), PPARD (gene 5467) (UniProt Q03181); assay: ATG_PPARd_TRANS: Attagene TRANS-FACTORIAL HepG2 Assay for human Peroxisome Proliferator-activated Receptor delta (PPARd) (AID 2283002)
# In short: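 HepG2 cells transiently transfected with GAL4-UAS multiplexed reporter units driven by exogenous chimeric NR-GAL4 proteins; 24 h compound exposure. Reporter mRNA measured by RT-PCR, 6-FAM primer extension, HpaI digestion and capillary electrophoresis; gain of signal fitted relative to DMSO.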
# [12] = molecular target: Retinoic acid receptor RXR-alpha (Homo sapiens) (UniProt P19793); assay: OT_NURR1_NURR1RXRa_0480: Odyssey Thera (OT) 8-hour HEK293T Protein Complementation Assay for Nurr1/retinoid X receptor (RXR) (AID 2283385)
# In short: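 HEK293T cells expressing Nurr1 and RXRα fused to reporter fragments were dosed with compound for 8 hours. Complex formation was read as fluorescence intensity and analysed as gain of signal against DMSO as baseline.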
# [13] = molecular target: Cellular tumor antigen p53 (Homo sapiens) (UniProt P04637); assay: TOX21_p53_BLA_p4_ratio: Tox21 HCT-116 p53 Agonism Beta-lactamase Assay, Ratio, Phase 4 (AID 2283601)
# In short: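 HCT-116 p53 beta-lactamase reporter cells (4000/well) preincubated 5 h, then compound (217-fold dilution of DMSO stock) for 16 h at 37C. CCF4-AM substrate added 2 h at room temperature; 460/530 nm emission ratio fitted upward versus DMSO.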
# [14] = molecular target: Bile acid receptor (Homo sapiens) (UniProt Q96RI1); assay: ATG_FXR_TRANS: Attagene TRANS-FACTORIAL HepG2 Assay for Farnesoid X Receptor (FXR) (AID 2282979); conditions: HepG2 Attagene TRANS FXR-GAL4 reporter transcription;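 also: hits raise reporter mRNA above DMSO so AC50 marks FXR activation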
# In short: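 Read-out: fluorescent reporter transcripts quantified by capillary electrophoresis after RT-PCR of total RNA. Source cells were HepG2 transiently carrying chimeric NR-GAL4 plus GAL4-UAS reporter units, dosed 24 h. Activity fitted upward relative to DMSO baseline.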
# [15] = molecular target: Retinoic acid receptor RXR-alpha (Homo sapiens) (UniProt P19793); assay: OT_NURR1_NURR1RXRa_1440: Odyssey Thera (OT) 24-hour HEK293T Protein Complementation Assay for Nurr1/retinoid X receptor (RXR) (AID 2283386)
# In short: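 HEK293T cells were dosed with compound and read 24 h later by fluorescence intensity in a protein-fragment complementation format, where Nurr1–RXRα interaction reconstitutes a split reporter. Activity was fitted as gain of signal relative to DMSO baseline.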
# [16] = ATG_M_06_TRANS: Attagene TRANS-FACTORIAL HepG2 Assay for M06 Transcription Factor (Internal Marker) (AID 2282983); conditions: HepG2 Attagene TRANS M06 internal marker reporter;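 also: reporter transcript level by RT-PCR then capillary electrophoresis fluorescence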
# In short: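 After a 24 h chemical treatment of transfected HepG2, RNA underwent DNase I treatment, reverse transcription and reporter-specific PCR; labelled, HpaI-digested products were sized by capillary electrophoresis. Signal increase relative to DMSO defined activity.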
# [17] = molecular target: Nuclear receptor subfamily 1 group I member 2 (Homo sapiens) (UniProt O75469); assay: NVS_NR_hPXR: NovaScreen (NVS) Nuclear Receptor Binding Assay for human Pregnane X Receptor (PXR) (AID 2283365);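 also: a drop in FRET signal versus DMSO baseline means the compound binds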
# In short: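 TR-FRET signal read at 2 h in a cell-free human PXR binding format. DMSO served as negative control and baseline; activity scored as signal loss. Single-concentration duplicate screen (25 uM), then concentration-response follow-up.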
# [18] = CCTE_Deisenroth_AIME_384WELL_CTox_Inactive: Cytotoxicity Assessment (CTOX) in CCTE's 384-well Estrogen Receptor Transactivation Assay without AIME metabolic competence (metabolism negative), Deisenroth Lab (AID 2284039);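 also: cell viability via live-cell protease substrate cleaved to fluorescent probe; cells exposed 24 h to medium preincubated 2 h with alginate-water beads without S9; loss of fluorescence signal means loss of viability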
# In short: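 VM7Luc4E2 human breast cells received conditioned medium from a 2 h incubation of chemical with alginate-water microspheres (no S9), then were exposed 24 h. Viability was read as protease-substrate cleavage to a fluorescent probe; loss of signal was fitted bidirectionally over 0.002–200 uM.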
structure (smiles),measurement,setting,value
NCC(F)(F)C(F)(F)C(F)(F)C(F)(F)C(F)(F)C(F)(F)C(F)(F)F,outcome,[2],inactive
same,AC50,[7],inconclusive: 19.8 µM
COCc1nnc(-c2ccc[n+]([O-])c2)n1-c1c(Cl)c(Cl)cc2[nH]c(=O)c(=O)[nH]c12,AC50,[1],inconclusive: 0.009 µM
same,AC50,[7],inconclusive: 0.0724 µM
same,outcome,[8],inactive
same,AC50,[9],inconclusive: 0.143 µM
same,AC50,[10],inconclusive: 50 µM
CCCCC(CC)COC(=O)CCCCCCCC(=O)OCC(CC)CCCC (stereo not drawn),AC50,[7],inconclusive: 100 µM
same,AC50,[11],inconclusive: 100 µM
same,AC50,[12],inconclusive: 8.68 µM
same,outcome,[12],inactive
same,AC50,[5],inconclusive: 46.1 µM
same,AC50,[6],inconclusive: 46.1 µM
same,outcome,[6],inactive
same,AC50,[13],inconclusive: 46.1 µM
same,outcome,[13],inactive
same,AC50,[10],inconclusive: 50 µM
CCCC(=O)c1ccccc1,AC50,[1],inconclusive: 19 µM
same,AC50,[11],inconclusive: 2.41 µM
same,outcome,[9],inactive
same,AC50,[4],inconclusive: 4.19 µM
OCCC(F)(F)C(F)(F)C(F)(F)C(F)(F)C(F)(F)C(F)(F)F,AC50,[2],inconclusive: 170 µM
same,AC50,[14],inconclusive: 150 µM
same,AC50,[11],inconclusive: 100 µM
same,outcome,[8],inactive
same,AC50,[15],inconclusive: 50 µM
same,outcome,[15],inactive
same,AC50,[5],inconclusive: 46.1 µM
same,AC50,[6],inconclusive: 64.9 µM
same,outcome,[13],inactive
same,outcome,[10],inactive
CCCCCCCCCCCCCC(=O)OC(C)C,AC50,[1],inconclusive: 2.04 µM
same,AC50,[14],inconclusive: 100 µM
same,outcome,[16],inactive
same,AC50,[11],inconclusive: 0.00913 µM
same,outcome,[9],inactive
same,AC50,[17],inconclusive: 25 µM
same,AC50,[5],inconclusive: 45.6 µM
same,outcome,[6],inactive
same,AC50,[13],inconclusive: 23 µM
same,AC50,[10],inconclusive: 50 µM
same,AC50,[18],inconclusive: 0.000589 µM
CCC(C)OC(=O)c1ccc(O)cc1 (stereo not drawn),outcome,[2],inactive
same,outcome,[7],inactive
same,AC50,[8],active: 14.8 µM
same,outcome,[3],inactive
same,AC50,[13],inconclusive: 46.1 µM
CCO[Si](OCC)(OCC)c1ccccc1,AC50,[14],inconclusive: 100 µM
same,AC50,[4],inconclusive: 100 µM
same,AC50,[5],inconclusive: 46.1 µM
same,outcome,[6],inactive
same,outcome,[13],inactive

# 4 entries drawn at random from those above, as already listed:
structure (smiles),measurement,setting,value
CCCCCCCCCCCCCC(=O)OC(C)C,AC50,[10],inconclusive: 50 µM
CCCCC(CC)COC(=O)CCCCCCCC(=O)OCC(CC)CCCC (stereo not drawn),AC50,[5],inconclusive: 46.1 µM
same,AC50,[6],inconclusive: 46.1 µM
CCCC(=O)c1ccccc1,AC50,[11],inconclusive: 2.41 µM
